The text below walks through data of paper PMC5996148.

“And” between values parts separate entries of the source, which are not always exact repeats. Equal entries are not always repeated. This is one part of the list. For some of these results: The source does not settle which construct or isoform was used.

Some test systems named below: CABP7 (human); CACHD1 (human); CACNG1 (human); CALB1 (human); CALCOCO1 (human); CALM2 (human); CAMK1D (human); CAMK4 (human); CANT1 (human).
Assay in all cases: protein microarray (ProtoArray v5.0), streptavidin-Alexa Fluor 647
Holding throughout (settings): 3'-biotin; 20 mM Tris (pH 7.5), 5 mM MgCl2, 100 mM KCl, 0.1% Tween-20, A/T-rich and random oligonucleotide blockers; temperature not stated; high values mean tight binding

Another test concerns the target CALM3 (UniProt P0DP25).

Turning to “GGGAGGCTGAGGCAGG [G4-1 biotinylated (PQS2)]”, the binding signal was -0.328 z-score in the test with CABP7 (human); -0.325 z-score with CACHD1 (human); -0.33 z-score in the test on CACNG1 (human); -0.334 z-score in the test with CALB1 (human); -0.339 z-score with CALCOCO1 (human); -0.333 z-score in the test on CALM2 (human). The binding signal in the test with CALM3 was -0.347 z-score; in the test on CAMK1D (human), -0.344 z-score and -0.358 z-score; in the test with CAMK4 (human), -0.355 z-score; with CANT1 (human), -0.338 z-score.
